Laboratory results: PubChem BioAssay AID1053209 (Peter MacCallum Cancer Centre, 2014)
This is one part, drawn at random, of about 1,580 reagents. 207 of them (13%) count as active. 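Rows are single siRNAs; four siRNAs per gene were tested, a gene counting as confirmed only when at least two agree.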 Entries without a mark were called inactive. The numbers tell different reagents against one gene apart. Further read-outs or replicates are left out here.

- Aim: 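Follow-up of single siRNAs that strengthen doxorubicin killing in osteosarcoma cells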 (follow-up of hits)
- Cell system: mouse primary osteosarcoma cells
- Reagent: single siRNA against mouse genes, 25 nM (text also states 40 nM)
- Timing: about 120 h (48 h before drug, then 72 h with drug)
- Conditions: doxorubicin 100 nM (about IC30-40), added 48 h after transfection, for 72 h
- Measurement: 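Viability measured by ATP luminescence with and without doxorubicin, each replicate scaled to non-targeting siRNA NT1, averaged over two replicates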
- Reading the numbers: viability with doxorubicin, vs NT1: higher = more viable cells under doxorubicin; viability without drug, vs NT1: higher = more viable cells without drug
- Call rule: 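Active when doxorubicin viability is at most 0.7 of NT1 and drug-free viability lies between 0.7 and 1.1, class LC dox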

What did the screen give for Mras (muscle and microspikes RAS) #1?
combined effect class: low viability only with doxorubicin; normal without drug (active); viability with doxorubicin, vs NT1: 0.49; viability without drug, vs NT1: 0.78

For Mras (muscle and microspikes RAS) #2, how do the results read?
combined effect class: normal viability with and without drug; viability with doxorubicin, vs NT1: 1.04; viability without drug, vs NT1: 1.05

What is on record for Mras (muscle and microspikes RAS) #3?
combined effect class: normal viability with and without drug; viability with doxorubicin, vs NT1: 0.92; viability without drug, vs NT1: 0.96

With Mras (muscle and microspikes RAS) #4, how do the results read?
combined effect class: normal viability with and without drug; viability with doxorubicin, vs NT1: 0.98; viability without drug, vs NT1: 1.02

For Rps11 (ribosomal protein S11) #1, what does the deposit list?
combined effect class: low viability with and without drug; viability with doxorubicin, vs NT1: 0.25; viability without drug, vs NT1: 0.42

How did the screen score Rps11 (ribosomal protein S11) #2?
combined effect class: low viability with and without drug; viability with doxorubicin, vs NT1: 0.57; viability without drug, vs NT1: 0.64

Which result is listed for Rps11 (ribosomal protein S11) #3?
combined effect class: low viability with and without drug; viability with doxorubicin, vs NT1: 0.18; viability without drug, vs NT1: 0.42

How did the screen score Rps11 (ribosomal protein S11) #4?
combined effect class: low viability with and without drug; viability with doxorubicin, vs NT1: 0.17; viability without drug, vs NT1: 0.4

What did the screen give for Il11ra2 (interleukin 11 receptor subunit alpha 2) #1?
combined effect class: normal viability with and without drug; viability with doxorubicin, vs NT1: 0.92; viability without drug, vs NT1: 1

How did the screen score Il11ra2 (interleukin 11 receptor subunit alpha 2) #2?
combined effect class: normal viability with and without drug; viability with doxorubicin, vs NT1: 1; viability without drug, vs NT1: 0.9

How did the screen score Il11ra2 (interleukin 11 receptor subunit alpha 2) #3?
combined effect class: normal viability with and without drug; viability with doxorubicin, vs NT1: 1.02; viability without drug, vs NT1: 1

For Il11ra2 (interleukin 11 receptor subunit alpha 2) #4, what does the deposit list?
combined effect class: normal viability with and without drug; viability with doxorubicin, vs NT1: 0.82; viability without drug, vs NT1: 0.92

With Hps6 (HPS6, biogenesis of lysosomal organelles complex 2 subunit 3) #1, what was measured?
combined effect class: normal viability with and without drug; viability with doxorubicin, vs NT1: 0.96; viability without drug, vs NT1: 1.03

How did the screen score Hps6 (HPS6, biogenesis of lysosomal organelles complex 2 subunit 3) #2?
combined effect class: normal viability with and without drug; viability with doxorubicin, vs NT1: 1.06; viability without drug, vs NT1: 0.98

With Hps6 (HPS6, biogenesis of lysosomal organelles complex 2 subunit 3) #3, how do the results read?
combined effect class: normal viability with and without drug; viability with doxorubicin, vs NT1: 0.94; viability without drug, vs NT1: 0.94

With Hps6 (HPS6, biogenesis of lysosomal organelles complex 2 subunit 3) #4, what was measured?
combined effect class: normal viability with and without drug; viability with doxorubicin, vs NT1: 1; viability without drug, vs NT1: 1.02
